Reference: patent US20110117086A1
These are yes or no findings as the source states them, for the method shown. Blank lines part the entries; values can stand above or below the binder they belong to.

What was measured:
[1] = biological target: T1, Human amidated gastrin I (G-17) (human); assay: ELISA on coated antigen, OD 492 nm (axis untitled)
T1 sequence (peptide, C-terminal amide): QGPWLEEEEEAYGWMDF

[2] = biological target: T2, Glycine-extended gastrin 17 (G17-Gly) (human); assay: ELISA on coated antigen, OD 492 nm (axis untitled)
T2 sequence (peptide): QGPWLEEEEEAYGWMDFG

[3] = biological target: T3, C-terminal flanking peptide (CTFP) (human); assay: ELISA on coated antigen, OD 492 nm (axis untitled)
T3 sequence (peptide): SAEDEN

[4] = biological target: T1, Human amidated gastrin I (G-17) (human); assay: ELISA, peptide coated
[5] = biological target: T2, Glycine-extended gastrin 17 (G17-Gly) (human); assay: ELISA, peptide coated
[6] = biological target: T3, C-terminal flanking peptide (CTFP) (human); assay: ELISA, peptide coated
[7] = biological target: T1, Human amidated gastrin I (G-17) (human); assay: ELISA on coated antigen, DO 492nm, n=2
[8] = biological target: T2, Glycine-extended gastrin 17 (G17-Gly) (human); assay: ELISA on coated antigen, DO 492nm, n=2
[9] = biological target: T3, C-terminal flanking peptide (CTFP) (human); assay: ELISA on coated antigen, DO 492nm, n=2
[10] = biological target: T1, Human amidated gastrin I (G-17) (human); assay: condition: antibody 3 ng/ml (expt 1) and 1 ng/mL (expt 2); peptide 50 and 250 ng; ELISA, peptide coated
[11] = biological target: T2, Glycine-extended gastrin 17 (G17-Gly) (human); assay: as above
[12] = biological target: T3, C-terminal flanking peptide (CTFP) (human); assay: as above
[13] = biological target: T1, Human amidated gastrin I (G-17) (human); assay: condition: antibody 0.3 ng/mL; peptide 50 and 250 ng; ELISA, peptide coated
[14] = biological target: T2, Glycine-extended gastrin 17 (G17-Gly) (human); assay: as above
[15] = biological target: T3, C-terminal flanking peptide (CTFP) (human); assay: as above

binding [10]: no binding
binding [11]: no binding
binding [12]: no binding
B2: Anti-hPG MAb 3 (antibody, V domains shown)
VH: EVQLQQSGTVLARPGASVKMSCKASGYIFTSYWVHWVKQRPGQGLEWIGGFYPGNSDSRYNQKFKGKATLTAVTSASTAYMDLSSLTNEDSAVYFCTRRDSPQYWGQGTTLTVSS
VL: DVLMTQTPLSLPVSLGDQASISCRSSQSIVHSNGNTYLEWYLQKPGQSPKLLIYKVSNRFSGVPDRFSGSGSGTDFTLKISRLEAEDLGVYYCFQGSHVPFTFGGGTKLEIK
binding [7]: no binding (tested: 250 ng coated (MAb 3 at 3 ng/ml))
binding [8]: no binding (tested: 250 ng coated (MAb 3 at 3 ng/ml))
binding [9]: no binding (tested: 250 ng coated (MAb 3 at 3 ng/ml))
binding [1]: no binding (tested: 250 ng coated (MAb 1 ng/ml))
binding [2]: no binding (tested: 250 ng coated (MAb 1 ng/ml))
binding [3]: no binding (tested: 250 ng coated (MAb 1 ng/ml))

binding [13]: no binding
binding [14]: no binding
binding [15]: no binding
B4: Anti-hPG MAb 8 (antibody, V domains shown)
VH: EVQLVESGGGLVKPGGSLKLSCAASGFTFTTYAMSWVRQTPEKRLEWVATISSGGTYTYYPDSVKGRFTISRDNAKNALYLQMSSLRSEDTAMYYCATQGNYSLDFWGQGTSLTVSS
VL: DIVMTQAASSNPVTLGTSASISCRSSKSLRHTKGITFLYWYLQKPGQSPQLLIYQMSNLASGVPDRFSSSGSGTDFTLRISRVEAEDLGVYYCAQNLELPLTFGAGTKLELK
binding [1]: no binding (tested: 250 ng coated (MAb 0,3 ng/ml))
binding [2]: no binding (tested: 250 ng coated (MAb 0,3 ng/ml))
binding [3]: no binding (tested: 250 ng coated (MAb 0,3 ng/ml))

Further lines, the binder ahead of its results:

B1: Anti-hPG MAb 19 (antibody, V domains shown)
VH: DVQLQESGPGLVKPSQSLSLTCTVTGYSITSDYAWNWIRQFPGNKLEWMGYISFSGYTSYNPSLKSRISVTRDTSRNQFFLQLTSVTTEDTATYYCAREVNYGDSYHFDYWGQGTIVTVSS
VL: QLALTQSSSASFSLGASAKLTCTLSSQHRTYTIEWYQQQSLKPPKYVMEVKKDGSHSTGHGIPDRFSGSSSGADRYLSISNIQPEDEAIYICGVGDAIKGQSVFVFGGGTKVTVL
binding [1]: no binding (tested: 250 ng coated (MAb 1 ng/ml))
binding [2]: no binding (tested: 250 ng coated (MAb 1 ng/ml))
binding [3]: no binding (tested: 250 ng coated (MAb 1 ng/ml))
binding [4]: no binding (tested: antibody 1 ng/mL; peptide 50 and 250 ng)
binding [5]: no binding (tested: antibody 1 ng/mL; peptide 50 and 250 ng)
binding [6]: no binding (tested: antibody 1 ng/mL; peptide 50 and 250 ng)

B3: Anti-hPG MAb 4 (antibody, V domains shown)
VH: QVQLQQSGAELMKPGASVKISCKATGYTFSSSWIEWLKQRPGHGLEWIGEFLPGSGSTDYNEKFKGKATFTADTSSDTAYMLLSSLTSEDSAVYYCATDGNYDWFAYWGQGTLVTVSA
VL: DLVMTQTPLSLPVSLGDQASISCRSSQSLVHSSGVTYLHWYLQKPGQSPKLLIYKVSNRFSGVPDRFSGSGSGTDFTLKISRVEAEDLGVYFCSQSTHVPPTFGSGTKLEIK
binding [7]: no binding (tested: 250 ng coated (MAb 4 at 1 µg/ml))
binding [8]: no binding (tested: 250 ng coated (MAb 4 at 1 µg/ml))
binding [9]: no binding (tested: 250 ng coated (MAb 4 at 1 µg/ml))
binding [4]: no binding (tested: antibody 1 µg/ml; peptide 50 and 250 ng)
binding [5]: no binding (tested: antibody 1 µg/ml; peptide 50 and 250 ng)
binding [6]: no binding (tested: antibody 1 µg/ml; peptide 50 and 250 ng)
